Measured values from patent US20260271934A1 (priority 2023, published 2026).
Some of these results come from one statement about several compounds together.

Experiments:
[1] = tested on: Plasmopara viticola; format: in vivo; conditions: 200 ppm
[2] = tested on: Phytophthora infestans; format: in vivo; conditions: 200 ppm; tomato leaf disks, preventative, inoculated 1 day after application, assessed 5-7 days after application

COCN(C(=O)c1cc(C)n2ncc(-c3ccc(NC(=O)OC)nc3)c2c1)c1ccc(F)c(OC)c1 [Compound 2, methyl N-[5-[5-[(4-fluoro-3-methoxy-phenyl)-(methoxymethyl)carbamoyl]-7-methyl-pyrazolo[1,5-a]pyridin-3-yl]-2-pyridyl]carbamate]
control of Plasmopara viticola (percent disease control compared to untreated) [1]: at least 80%
control of Phytophthora infestans (percent disease control compared to untreated) [2]: at least 80%

COC(=O)Nc1ccc(-c2cnn3c(C)cc(C(=O)N(C)c4ccc(F)c(OC)c4)cc23)cn1 [Compound 1, methyl N-[5-[5-[(4-fluoro-3-methoxy-phenyl)-methyl-carbamoyl]-7-methyl-pyrazolo[1,5-a]pyridin-3-yl]-2-pyridyl]carbamate]
control of Plasmopara viticola (percent disease control compared to untreated) [1]: at least 80%
control of Phytophthora infestans (percent disease control compared to untreated) [2]: at least 80%
